The supplement of paper PMC10849652
The list shows a part of the results.

Chains of the proteins cited; added tags and fusions are not shown. Lines headed by an entry give the natural chain unless they say otherwise; changes in a name come on top.
UniProt P17096: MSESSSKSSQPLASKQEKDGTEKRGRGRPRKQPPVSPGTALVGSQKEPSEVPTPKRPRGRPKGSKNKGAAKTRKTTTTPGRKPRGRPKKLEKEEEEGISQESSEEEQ
UniProt P26583: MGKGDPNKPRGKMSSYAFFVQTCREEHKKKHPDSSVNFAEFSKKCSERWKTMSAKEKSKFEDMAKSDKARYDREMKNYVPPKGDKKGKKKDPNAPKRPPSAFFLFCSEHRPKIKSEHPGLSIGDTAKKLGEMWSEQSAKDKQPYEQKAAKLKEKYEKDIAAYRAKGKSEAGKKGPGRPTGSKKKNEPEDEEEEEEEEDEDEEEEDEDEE
UniProt P14625, whole entry, looked up: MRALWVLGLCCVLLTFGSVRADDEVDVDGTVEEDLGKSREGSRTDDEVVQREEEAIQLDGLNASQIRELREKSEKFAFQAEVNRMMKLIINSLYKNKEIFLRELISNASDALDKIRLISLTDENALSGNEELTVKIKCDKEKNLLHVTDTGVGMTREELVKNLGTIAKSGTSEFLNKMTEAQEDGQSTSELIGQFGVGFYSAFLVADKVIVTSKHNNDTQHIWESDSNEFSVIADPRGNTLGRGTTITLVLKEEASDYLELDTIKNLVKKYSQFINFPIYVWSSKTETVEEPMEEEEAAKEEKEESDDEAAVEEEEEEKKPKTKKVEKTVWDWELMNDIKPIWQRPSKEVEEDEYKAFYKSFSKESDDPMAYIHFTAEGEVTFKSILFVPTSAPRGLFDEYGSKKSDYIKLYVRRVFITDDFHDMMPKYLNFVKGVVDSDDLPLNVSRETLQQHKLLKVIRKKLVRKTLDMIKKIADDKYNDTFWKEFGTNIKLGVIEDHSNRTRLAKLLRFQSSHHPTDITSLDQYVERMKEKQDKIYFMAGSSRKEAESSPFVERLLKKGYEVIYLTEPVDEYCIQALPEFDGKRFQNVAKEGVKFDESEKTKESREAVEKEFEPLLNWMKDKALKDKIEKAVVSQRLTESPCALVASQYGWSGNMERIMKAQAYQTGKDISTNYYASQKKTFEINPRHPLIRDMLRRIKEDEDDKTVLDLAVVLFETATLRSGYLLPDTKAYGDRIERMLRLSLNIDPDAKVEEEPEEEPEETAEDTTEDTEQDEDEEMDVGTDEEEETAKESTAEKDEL
UniProt P06865: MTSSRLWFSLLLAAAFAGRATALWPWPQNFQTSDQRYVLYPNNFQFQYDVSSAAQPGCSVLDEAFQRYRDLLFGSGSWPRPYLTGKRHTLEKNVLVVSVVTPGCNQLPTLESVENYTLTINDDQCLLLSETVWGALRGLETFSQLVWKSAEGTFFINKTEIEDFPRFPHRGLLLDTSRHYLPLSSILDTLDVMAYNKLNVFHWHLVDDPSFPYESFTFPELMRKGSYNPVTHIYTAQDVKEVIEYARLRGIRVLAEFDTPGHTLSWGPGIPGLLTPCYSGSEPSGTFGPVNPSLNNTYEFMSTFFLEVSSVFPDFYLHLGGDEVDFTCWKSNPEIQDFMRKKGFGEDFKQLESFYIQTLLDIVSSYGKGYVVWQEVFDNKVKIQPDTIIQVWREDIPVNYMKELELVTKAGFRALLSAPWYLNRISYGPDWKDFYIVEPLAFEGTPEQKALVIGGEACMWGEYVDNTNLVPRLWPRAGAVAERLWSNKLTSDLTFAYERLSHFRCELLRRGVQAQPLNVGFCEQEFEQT
UniProt P14866: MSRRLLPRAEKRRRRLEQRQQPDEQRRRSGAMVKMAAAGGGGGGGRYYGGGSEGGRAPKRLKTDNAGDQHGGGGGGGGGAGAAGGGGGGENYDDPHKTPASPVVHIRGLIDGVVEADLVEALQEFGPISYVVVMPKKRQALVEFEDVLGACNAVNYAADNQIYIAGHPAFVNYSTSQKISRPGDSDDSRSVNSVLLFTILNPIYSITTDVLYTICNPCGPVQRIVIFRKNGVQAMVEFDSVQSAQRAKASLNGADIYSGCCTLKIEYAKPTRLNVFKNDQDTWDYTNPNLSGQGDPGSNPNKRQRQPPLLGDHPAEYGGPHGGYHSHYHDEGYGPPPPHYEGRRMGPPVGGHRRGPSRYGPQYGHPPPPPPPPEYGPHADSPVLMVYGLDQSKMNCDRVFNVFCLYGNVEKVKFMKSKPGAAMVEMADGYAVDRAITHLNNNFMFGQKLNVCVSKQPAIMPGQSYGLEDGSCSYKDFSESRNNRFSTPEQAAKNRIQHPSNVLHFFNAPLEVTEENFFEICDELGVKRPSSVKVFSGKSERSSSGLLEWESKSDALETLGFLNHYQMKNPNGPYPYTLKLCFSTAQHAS
UniProt Q53T59: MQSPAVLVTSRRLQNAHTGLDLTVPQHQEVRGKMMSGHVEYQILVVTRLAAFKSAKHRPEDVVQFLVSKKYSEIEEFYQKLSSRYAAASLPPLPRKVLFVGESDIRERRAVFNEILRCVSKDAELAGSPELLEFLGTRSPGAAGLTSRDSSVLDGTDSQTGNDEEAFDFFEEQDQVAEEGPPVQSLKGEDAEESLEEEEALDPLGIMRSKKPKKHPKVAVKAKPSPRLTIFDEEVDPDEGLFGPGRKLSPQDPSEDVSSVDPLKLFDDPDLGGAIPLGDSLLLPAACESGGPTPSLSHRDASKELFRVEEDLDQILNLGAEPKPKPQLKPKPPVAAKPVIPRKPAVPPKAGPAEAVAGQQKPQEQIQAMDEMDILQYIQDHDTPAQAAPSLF

Columns and labels:
Experiment in all cases: log2 fold change, soluble protein after heating vs DMSO (PISA); higher = thermal stabilisation; K562 lysate, 10 uM; active = over 0.2 and 3.5 SD of the protein, either way, in both replicates (recomputed)
vemurafenib = compound: CCCS(=O)(=O)Nc1ccc(F)c(C(=O)c2c[nH]c3ncc(-c4ccc(Cl)cc4)cc23)c1F [vemurafenib]
In short: (§1)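 Thermal stability, expressed as log-two fold change relative to solvent controls, is given from duplicates. Crude K562 extract in PBS pH 7.4 with 1 mM MgCl2, at 1 mg/mL protein, was treated with 10 μM compound for 30 min and heated in aliquots for 3 min across 48°C-58°C. After pooling, adjustment to 0.5% NP-40 at 4°C and centrifugation at 21,000xg for 90 min, supernatant protein was measured by TMTpro 16plex LC-MS/MS with channel sums equalised.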

[1] = compound: CCCS(=O)(=O)Nc1ccc(F)c(C(=O)c2c[nH]c3ncc(Cl)cc23)c1F
In short: as §1

barasertib = compound: CCN(CCCOc1ccc2c(Nc3cc(CC(=O)Nc4cccc(F)c4)[nH]n3)ncnc2c1)CCOP(=O)(O)O [barasertib]
In short: as §1

[2] = compound: CC[C@@H]1C(=O)N(C)c2cnc(Nc3ccc(C(=O)NC4CCN(C)CC4)cc3OC)nc2N1C1CCCC1
In short: as §1

volasertib = compound: CC[C@@H]1C(=O)N(C)c2cnc(Nc3ccc(C(=O)N[C@H]4CC[C@H](N5CCN(CC6CC6)CC5)CC4)cc3OC)nc2N1C(C)C [volasertib]
In short: as §1

[3] = compound: CCn1c(C(=O)N(C2CC2)C2CC2)cc2c3c(ncn3C)c(Nc3cc(C)n(C)n3)nc21
In short: as §1

[4] = compound: CCn1cc(-c2ccnc3[nH]c(-c4cccc(CN(C)C)c4)cc23)c(-c2ccc(NC(=O)N(C)C)cc2)n1
In short: as §1

[5] = compound: CN1CCC(CNc2ccc3ncc(-c4cccc(OC(F)(F)F)c4)n3n2)CC1
In short: as §1

saracatinib = compound: CN1CCN(CCOc2cc(OC3CCOCC3)c3c(Nc4c(Cl)ccc5c4OCO5)ncnc3c2)CC1 [saracatinib]
In short: as §1

sotrastaurin = compound: CN1CCN(c2nc(C3=C(c4c[nH]c5ccccc45)C(=O)NC3=O)c3ccccc3n2)CC1 [sotrastaurin]
In short: as §1

alvocidib = compound: CN1CC[C@H](c2c(O)cc(O)c3c(=O)cc(-c4ccccc4Cl)oc23)[C@H](O)C1 [alvocidib]
In short: as §1

Tubastatin A = compound: CN1CCc2c(c3ccccc3n2Cc2ccc(C(=O)NO)cc2)C1 [Tubastatin A]
In short: as §1

[6] = compound: CNC(=O)C1=CC=CC=C1NC2=NC(=NC=C2Cl)NC3=C(C=C(C=C3)N4CCOCC4)OC
In short: as §1

defactinib = compound: CNC(=O)c1ccc(Nc2ncc(C(F)(F)F)c(NCc3nccnc3N(C)S(C)(=O)=O)n2)cc1 [defactinib]
In short: as §1

[7] = compound: CNc1nc(-c2ccc3c(N)n[nH]c3c2)cc(N2C[C@@H](C(=O)NC3CCCCC3)CC[C@H]2C)n1
In short: as §1

encorafenib = compound: COC(=O)N[C@@H](C)CNc1nccc(-c2cn(C(C)C)nc2-c2cc(Cl)cc(NS(C)(=O)=O)c2F)n1 [encorafenib]
In short: as §1

[8] = compound: COC(=O)[C@H](CCSC)NC(=O)C1=C(C=C(C=C1)NC[C@H](CS)N)C2=CC=CC=C2
In short: as §1

alisertib = compound: COc1cc(Nc2ncc3c(n2)-c2ccc(Cl)cc2C(c2c(F)cccc2OC)=NC3)ccc1C(=O)O [alisertib]
In short: as §1

[9] = compound: COc1cc2nc(-c3cc(F)ccc3O)nc(N[C@@H]3CNC[C@H]3C(C)(C)O)c2cc1OC
In short: as §1

gefitinib = compound: COc1cc2ncnc(Nc3ccc(F)c(Cl)c3)c2cc1OCCCN1CCOCC1 [gefitinib]
In short: as §1

| Target | log2 fold change (vemurafenib) | log2 fold change [1] | log2 fold change (barasertib) | log2 fold change [2] | log2 fold change (volasertib) | log2 fold change [3] | log2 fold change [4] | log2 fold change [5] | log2 fold change (saracatinib) | log2 fold change (sotrastaurin) | log2 fold change (alvocidib) | log2 fold change (Tubastatin A) | log2 fold change [6] | log2 fold change (defactinib) | log2 fold change [7] | log2 fold change (encorafenib) | log2 fold change [8] | log2 fold change (alisertib) | log2 fold change [9] | log2 fold change (gefitinib) |
| --- | --- | --- | --- | --- | --- | --- | --- | --- | --- | --- | --- | --- | --- | --- | --- | --- | --- | --- | --- | --- |
| HMGA1 (UniProt P17096) | inactive: 0.023 | inactive: -0.011 | inactive: -0.05 | inactive: 0.051 | inactive: 0.02 | inactive: -0.04 | active: -0.323 | inactive: 0.131 | inactive: -0.001 | inactive: 0.012 | inactive: -0.108 | inactive: 0.066 | inactive: -0.001 | inactive: -0.007 | inactive: 0.023 | inactive: -0.005 | inactive: -0.018 | inactive: 0.046 | inactive: 0.011 | inactive: -0.027 |
| HMGB2 (UniProt P26583) | inactive: 0.003 | inactive: 0.017 | inactive: -0.019 | inactive: 0.037 | inactive: 0.014 | inactive: 0.018 | active: 0.283 | active: -0.273 | inactive: 0.007 | inactive: -0.04 | inactive: 0.134 | inactive: 0.027 | inactive: 0.023 | inactive: 0.003 | inactive: 0.016 | inactive: -0.006 | inactive: -0.081 | inactive: -0.044 | inactive: -0.022 | inactive: -0.028 |
| HSP90B1 (UniProt P14625) | inactive: 0 | inactive: -0.01 | inactive: -0.016 | inactive: 0.007 | inactive: 0.014 | inactive: -0.006 | inactive: 0.042 | inactive: -0.017 | inactive: -0.003 | inactive: -0.022 | inactive: 0.02 | inactive: 0.052 | inactive: -0.009 | inactive: -0.016 | inactive: 0.011 | inactive: -0.01 | inactive: -0.016 | inactive: 0.007 | inactive: 0.008 | inactive: -0.002 |
| HEXA (UniProt P06865) | inactive: -0.015 | inactive: 0.001 | inactive: 0.008 | inactive: -0.004 | inactive: 0.003 | inactive: -0.006 | inactive: -0.031 | inactive: 0.024 | inactive: -0.009 | inactive: 0.008 | inactive: 0.002 | inactive: 0.023 | inactive: -0.013 | inactive: 0.007 | inactive: 0.044 | inactive: -0.01 | inactive: 0.005 | inactive: 0.017 | inactive: -0.02 | inactive: -0.022 |
| HNRNPL (UniProt P14866) | inactive: 0.01 | inactive: 0.023 | inactive: 0.021 | inactive: -0.052 | inactive: -0.047 | inactive: 0.061 | inactive: -0.012 | inactive: -0.056 | inactive: 0.017 | inactive: 0.023 | inactive: 0.035 | inactive: -0.174 | inactive: 0.016 | inactive: 0.015 | inactive: -0.02 | inactive: 0 | inactive: 0.073 | inactive: -0.026 | inactive: -0.007 | inactive: -0.019 |
| HS1BP3 (UniProt Q53T59) | inactive: -0.003 | inactive: -0.012 | inactive: 0.056 | inactive: 0.029 | inactive: -0.002 | inactive: 0.014 | inactive: -0.238 | inactive: 0.092 | inactive: 0.082 | inactive: 0.013 | inactive: -0.054 | inactive: 0.034 | inactive: -0.015 | inactive: -0.016 | inactive: -0.052 | inactive: 0.009 | inactive: -0.088 | inactive: -0.021 | inactive: 0.021 | inactive: -0.031 |
